Values from PubChem BioAssay AID1259254 (NCATS, 2017)

Assay: 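Genome-wide screen for genes that prevent DNA re-replication in cancer cells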 (primary screen)
Cell system: human HCT116 colorectal cancer cells
Knock-down reagent: single siRNA against human genes
Time to read-out: 3 days
Read-out: 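Imaged Hoechst DNA stain sorts each cell into a cycle phase by DNA amount; per plate, G2 fraction set to 0% for non-targeting and 100% for GMNN siRNA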
Direction: G2 robust z-score and G2 cells, % of GMNN control: higher = more G2 cells, more excess DNA replication
Call rule: 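Active siRNAs have a G2 robust z of 5 or more median absolute deviations over the median, which in these data means about 38% or higher of GMNN control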
Shown is an unselected part of about 59,000 deposited reagents. In the full data, about 1,550 (2.6%) were called active. 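G2 share is only a proxy for re-replication; each gene was hit by three separate siRNAs, and active genes were retested.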 A number with no mark means an inactive call. Reagents against one gene are numbered here. Further read-outs or replicates are left out here. Reagent sequences are not shown. The record does not give: the amount of reagent.

no.	gene	siRNA no.	G2 robust z-score	G2 cells, % of GMNN control
1	RNLS	1	-0.724	-2.13
2	RNLS	2	0.464	6.23
3	RNLS	3	0.764	8.34
4	IQSEC2	1	0.693	7.84
5	IQSEC2	2	3.42	27
6	IQSEC2	3	0.51	6.56
7	LINC02911	1	-0.907	-3.42
8	LINC02911	2	0.184	4.26
9	LINC02911	3	-0.0667	2.5
10	MOB2	1	-1.63	-8.51
11	MOB2	2	2.34	19.5
12	MOB2	3	0.477	6.33
13	HPGD	1	1.55	13.9
14	HPGD	2	-0.759	-2.37
15	HPGD	3	-1.3	-6.21
16	CORO1C	1	1.99	16.9
17	CORO1C	2	-0.422	-0.00165
18	CORO1C	3	-0.206	1.52
19	PLXDC1	1	0.252	4.74
20	PLXDC1	2	0.081	3.54
21	PLXDC1	3	0.34	5.36
22	APOBEC1	1	0.138	3.94
23	APOBEC1	2	-0.851	-3.02
24	APOBEC1	3	0.177	4.21
25	ANKRA2	1	0.488	6.4
26	ANKRA2	2	-1.1	-4.77
27	ANKRA2	3	3.36	26.6
28	LRRC3B	1	-0.917	-3.48
29	LRRC3B	2	-0.975	-3.9
30	LRRC3B	3	0.483	6.37

Laid out differently: 2 of the entries above
{"gene": "PLXDC1", "siRNA no.": 1, "G2 robust z-score": 0.252, "G2 cells, % of GMNN control": 4.74}
{"gene": "PLXDC1", "siRNA no.": 2, "G2 robust z-score": 0.081, "G2 cells, % of GMNN control": 3.54}
